Patent US20030003086A1, “Modulation of MHC class I antigen presentation” (priority 2001, published 2003)
Some results were stated once for a whole list of compounds, not compound by compound.

Tested on: puromycin-sensitive aminopeptidase (PSA)
Assay: HPLC analysis of peptide metabolism: breakdown of […] (Sendai Virus NP), effect of inhibitors
Assay type: biochemical, human
Conditions: peptide […] (SEQ ID NO: 10)

Row | Structure (SMILES) | inhibition of degradation of […]
1 | COc1ccc(C[C@H](N)C(=O)N[C@H]2[C@@H](O)[C@H](n3cnc4c(N(C)C)ncnc43)O[C@@H]2CO)cc1 [puromycin] | up to 70%
2 | CC(C)C[C@H](NC(=O)[C@@H](O)[C@H](N)Cc1ccccc1)C(=O)O [bestatin] | up to 70%
